# In PubChem BioAssay AID602313 (National Center for Advancing Translational Sciences (NCATS), 2012):
# The whole screen tested about 390,000 compounds, of which about 760 (0.19%) were called active. This list was built around the results that the source calls inconclusive (neither active nor inactive); the mix of calls is not that of the screen. Calls follow the shape of the dose curve; as a rule, active = well fitted inhibition curve with a large enough effect; inconclusive = small, poorly fitted or top-dose-only effect; inactive = flat fitted curve, though single readings scatter. Potencies of inconclusive entries are doubtful fits and often do not repeat.
# Assay: qHTS for Inhibitors of Vif-A3F Interactions: qHTS; also: nearly all actives have a fitted effect of over 65% in size; as to activity, negative = active: % of control where 0% means no effect
# Conditions: HeLa A3F-eYFP + Vif (tagged APOBEC3F with the HIV-1 protein that degrades it), YFP fluorescence increase; series mostly up to 46.1 µM; activity, negative = active: at the top concentration
# Outline: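 HeLa cells stably expressing Vif plus C-terminally eYFP-tagged A3F were seeded, incubated overnight at 37 deg C, dosed with compound, incubated overnight again at 37 deg C. Yellow fluorescence (Ex 488/Em 500-530) reported blocked Vif-mediated A3F-eYFP degradation.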
# Potency is read from the fitted curve at half-maximal effect.
Compound,Potency,"activity, negative = active"
CCN(CC)c1ccc(C=N/C(C#N)=C(\N)C#N)cc1,"inconclusive: 35.5 µM [inhibitor, single point]",
Cc1cc(=O)n(Cc2c(F)cccc2Cl)c2c1c(C)nn2-c1cccc(F)c1,,inactive: 1.6%
CCOc1ccc(NC(=S)Nc2ccccc2C2(C)CC2)cc1,"inconclusive: 20 µM [inhibitor, partial curve, poor fit]",
O=C(NNC(=O)c1ccc(Cl)nc1)c1ccc(Br)cc1,"inconclusive: 2.82 µM [inhibitor, partial curve, poor fit]",
Cc1ccc(F)c([C@H]2C3C=CCC(c4ccccc4)C3C(=O)N2Cc2ccccc2)c1 (stereo partly drawn),"inconclusive: 35.5 µM [inhibitor, single point]",
COc1ccc(/C=N/NC(=O)c2[nH]c3ccc(Cl)cc3c2-c2ccccc2)c(C(=O)O)c1OC,"inconclusive: 22.4 µM [inhibitor, single point]",
Cn1cccc1/C=C1\SC(=O)N(CC(=O)Nc2ccc(F)cc2)C1=O,"inconclusive: 35.5 µM [inhibitor, single point]",
COc1cc(C2Nc3ccccc3NC3=C2C(=O)CC(C)(C)C3)cc(OC)c1OC (stereo not drawn),"inconclusive: 35.5 µM [inhibitor, single point]",
COc1ccc(C(=O)/C(=C\c2ccco2)N2C=CC=CC2=C(C#N)C#N)cc1,"inconclusive: 35.5 µM [inhibitor, single point]",
CC(C)Oc1ccc(C(CC(=O)O)NC(=O)Cc2ccc(Cl)cc2)cc1 (stereo not drawn),"inconclusive: 6.31 µM [inhibitor, single point]",
CCOc1ccc(OCC)c(S(=O)(=O)N2CCCCC2)c1,"inconclusive: 31.6 µM [inhibitor, single point]",
O=C(COc1ccccc1-c1ccccc1)N/N=C/c1ccncc1,"inconclusive: 35.5 µM [inhibitor, single point]",
CCN(CC)c1ccc(/C=N/NC(=S)NC)c(O)c1,"inconclusive: 2.51 µM [inhibitor, full curve, poor fit]",
O=C(CN1C(=O)C2C3C=CC(C3)C2C1=O)Nc1cccc(S(=O)(=O)N2CCCC2)c1 (stereo not drawn),"inconclusive: 3.16 µM [inhibitor, partial curve, poor fit]",
COc1ccc(S(=O)(=O)Nc2ccccc2-c2nc3ccccc3[nH]c2=O)cc1,active: 3.55 µM,
CCCCN(C(=O)CC1CCCC1)c1c(N)n(CC(C)C)c(=O)[nH]c1=O,"inconclusive: 3.16 µM [inhibitor, partial curve, poor fit]",
COc1cccc(OC)c1OCCCN1CCC(Cc2ccccc2)CC1,,inactive: 5.36%
CSC1(SC2=NCCN2)SC2(NCCN2)S1,,inactive: 10.2%
Cc1ccccc1-c1nc2ccccc2[nH]1,,inactive: -5.25%
O=C(NNC(=O)c1cccnc1)c1ccncc1,"inconclusive: 5.01 µM [inhibitor, partial curve, poor fit]",
CCOc1ccccc1C1CC(=O)Nc2cc3c(cc21)OCCO3 (stereo not drawn),,inactive: -1.49%
N#Cc1cnn(-c2cccc(Cl)c2)c1N,,inactive: 3.4%

# Compounds shown so far containing fluorine:
Compound,Potency,"activity, negative = active"
Cc1cc(=O)n(Cc2c(F)cccc2Cl)c2c1c(C)nn2-c1cccc(F)c1,,inactive: 1.6%
Cc1ccc(F)c([C@H]2C3C=CCC(c4ccccc4)C3C(=O)N2Cc2ccccc2)c1 (stereo partly drawn),"inconclusive: 35.5 µM [inhibitor, single point]",
Cn1cccc1/C=C1\SC(=O)N(CC(=O)Nc2ccc(F)cc2)C1=O,"inconclusive: 35.5 µM [inhibitor, single point]",

# Next records.

Compound,Potency,"activity, negative = active"
O=C(O)c1cc(S(=O)(=O)N2CCCCC2)sc1Cl,,inactive: 5.27%
Cc1ccc(C(=O)N2CCC3(CC2)Oc2ccc(Cl)cc2C(=O)C32CC(c3ccc(Cl)cc3)=NO2)s1 (stereo not drawn),,inactive: -2.45%
Cc1c(C(=O)Nc2ccc(F)cc2F)oc2c1-c1nn(Cc3c(F)cccc3Cl)cc1CC2,"inconclusive: 11.2 µM [inhibitor, single point]",
N#Cc1ccccc1NC(=O)CSc1nc(-c2ccccc2)cc(C(F)(F)F)c1C#N,active: 11.2 µM,
COc1cccc(OCC(O)CN2CCN(C(c3ccccc3)c3ccccc3)CC2)c1 (stereo not drawn),"inconclusive: 20 µM [inhibitor, single point]",
COC(=O)c1cnc(Nc2cc(C)ccc2OC)c2ccccc12,active: 31.6 µM,
COc1ccc2[nH]c3c(c2c1)CCN1C(=O)C(CC(=O)NC/C=C(\C)CCC=C(C)C)C[C@H](C(=O)N(C(C)C)C(C)C)[C@@]31C (stereo partly drawn),"inconclusive: 35.5 µM [inhibitor, single point]",
[O-]C(=C(C(=S)Nc1cccc2ccccc12)[n+]1ccccc1)c1ccc2c(c1)OCCO2,"inconclusive: 35.5 µM [inhibitor, single point]",
O=C(CN1CCN(CC(=O)c2ccccc2)CC1)c1ccccc1,"inconclusive: 35.5 µM [inhibitor, single point]",
Cc1c(C(=O)/C=C/N(C)C)nnn1-c1ccc(Cl)cc1Cl,"inconclusive: 7.94 µM [inhibitor, partial curve, poor fit]",
CCOC(=O)c1cc2n(c1N)-c1ccccc1C2=O,active: 7.08 µM,
Clc1ccc(-c2cc3ncc4c(n3n2)-c2ccccc2OC4)cc1,,inactive: -5.73%
O=C(COC(=O)/C=C/c1ccc(C(F)(F)F)cc1)NC1CCS(=O)(=O)C1 (stereo not drawn),"inconclusive: 25.1 µM [inhibitor, single point]",
Cc1nnsc1C(=O)Nc1cccc(Cl)c1C,"inconclusive: 25.1 µM [inhibitor, partial curve, poor fit]",
CNCc1cc(Br)c(OCC(=O)Nc2ccccc2OC)c(OC)c1,"inconclusive: 5.01 µM [inhibitor, full curve, poor fit]",
Cc1ccc(-c2nc(NCc3ccco3)c3ccccc3n2)cc1,"inconclusive: 35.5 µM [inhibitor, single point]",
Oc1ccc(Cn2ccnc2)c2cccnc12,"inconclusive: 35.5 µM [inhibitor, single point]",
O=C(Nc1ccccc1C(=O)O)c1cc(S(=O)(=O)N2CCCCCC2)ccc1Cl,"inconclusive: 5.62 µM [inhibitor, single point]",
CCOC(=O)c1c(NC(=O)CN2CCCCC2)sc2c1CCN(C(=O)OCC)C2,,inactive: 10.8%
COC(=O)c1ccccc1NC(=O)C1=CC(c2ccc3c(c2)OCO3)=NS(=O)(=O)N1C,"inconclusive: 17.8 µM [inhibitor, partial curve, poor fit]",
CCCn1cc2c(c1-c1ccc(C)cc1)c(=O)n(C)c(=O)n2C,"inconclusive: 1.26 µM [inhibitor, partial curve, poor fit]",
